Measured values taken from patent US20220348676A1.
No constants are given. Whether binding was seen depends on the method and setting. Some binding calls cover weakened binding; strength is not graded here. For some of these results: Tags and fused reporters may be left off the sequences shown.

Key:
[1] = biological target: T1, canine CD20 on the canine B-cell lymphoma cell line CLBL-1 (canine) (UniProt Q3C2E2); test: flow cytometry on CLBL-1 cells
T1 sequence (looked up): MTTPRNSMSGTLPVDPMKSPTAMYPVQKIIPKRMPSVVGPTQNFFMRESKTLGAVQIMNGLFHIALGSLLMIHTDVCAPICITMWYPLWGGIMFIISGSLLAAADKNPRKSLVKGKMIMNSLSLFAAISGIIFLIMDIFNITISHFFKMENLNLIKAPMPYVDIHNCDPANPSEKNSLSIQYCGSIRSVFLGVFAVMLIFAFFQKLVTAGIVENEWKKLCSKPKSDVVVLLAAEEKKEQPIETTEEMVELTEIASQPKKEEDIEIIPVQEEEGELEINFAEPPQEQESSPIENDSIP

[2] = biological target: T2, canine CD20 tagged with FLAG, overexpressed on NRK/cCD20, Jurkat/cCD20 and EL-4/cCD20 cells (canine) (UniProt Q3C2E2); test: flow cytometry on Jurkat/cCD20 cells
T2 sequence (looked up): T1 sequence (looked up)

[3] = biological target: T2, canine CD20 tagged with FLAG, overexpressed on NRK/cCD20, Jurkat/cCD20 and EL-4/cCD20 cells (canine); test: flow cytometry on NRK/cCD20 cells
[4] = biological target: T2, canine CD20 tagged with FLAG, overexpressed on NRK/cCD20, Jurkat/cCD20 and EL-4/cCD20 cells (canine); test: immunoprecipitation from Jurkat/cCD20 lysate, anti-Flag Western blot

binding [1]: binds
binding [2]: binds
binding [3]: binds
binding [4]: binds
B1: anti-canine CD20 monoclonal antibody (4E1-7) (antibody, V domains shown)
VH: EVQLVESGGGLVQPGASLKLSCVASGFTFNDYWMSWVRQTPGKTMEWIGDIKYDGSYTNYAPSLKNRFTISRDNAKSTLYLQMSNVRSEDTATYYCTREAYYYSGDYWGQGVMVTVSS
VL: DIVLTQSPALAVSLGQRATISCKTNQNVDYYGNSYMHWYQQKPGQQPKLLIYLASNLASGIPARFSGRGSGTDFTLTIDPVEADDTATYYCQQSRNLPYTFGAGTKLELKR
